The data set in a line: general procedure: Fmoc solid-phase peptide synthesis; 2-CTC resin or Wang resin (Fmoc-Gly-CTC 0.15-0.28 mmol/g; Fmoc-Gly-Wang 0.12-0.24 mmol/g); PyBOP/HOBt/DIEA (side-chain Palmitoyl-Glu-OtBu coupling). To be noted: for step yield: purification step, purification yield; for final HPLC purity: 214 nm; for isolated yield: overall.
Setting [1] is: whole synthesis, hydrochloride, acetate or trifluoroacetate.

As for liraglutide, the step yield by setting is: (acetate) 54.7%; (hydrochloride) 52.7%; (trifluoroacetate) 55.2%. Further, the “final HPLC purity” value by setting is: under setting [1], “greater than 98.5%”; (whole synthesis, HPLC, acetate) 99.23%; (whole synthesis, HPLC, hydrochloride) 99.1%; (whole synthesis, HPLC, trifluoroacetate) 99.17%. The same substance came in with a crude yield under setting [1] of 80.5%. The same substance had an isolated yield (whole synthesis, acetate) of 15.68%; an isolated yield (whole synthesis, hydrochloride) of 15.32%; an isolated yield (whole synthesis, trifluoroacetate) of 15.87%.

The values above are taken from US9260474 (dated 2016).
